This note sets out measurements from patent publication US20230322935A1 (published 2023).

Chains of the proteins cited; added tags and fusions are not shown. Residues count along the entry.
UniProt Q9NPY3, residues 22-580: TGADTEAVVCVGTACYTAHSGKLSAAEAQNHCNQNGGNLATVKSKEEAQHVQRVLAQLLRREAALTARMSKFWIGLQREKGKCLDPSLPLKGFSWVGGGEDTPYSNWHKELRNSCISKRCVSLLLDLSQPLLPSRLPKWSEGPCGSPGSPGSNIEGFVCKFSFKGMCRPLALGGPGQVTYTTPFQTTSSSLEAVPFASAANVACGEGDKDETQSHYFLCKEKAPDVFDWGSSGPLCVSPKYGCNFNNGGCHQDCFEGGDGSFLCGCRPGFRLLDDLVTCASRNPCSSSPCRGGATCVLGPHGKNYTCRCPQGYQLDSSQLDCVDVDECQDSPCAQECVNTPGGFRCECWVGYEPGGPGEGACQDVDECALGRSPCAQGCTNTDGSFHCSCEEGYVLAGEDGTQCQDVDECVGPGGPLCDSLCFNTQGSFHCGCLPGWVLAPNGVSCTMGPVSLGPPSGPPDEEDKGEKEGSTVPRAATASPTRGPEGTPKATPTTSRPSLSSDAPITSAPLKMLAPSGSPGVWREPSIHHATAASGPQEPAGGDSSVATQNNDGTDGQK

The target of the assay is His-tagged human CD93 (human) (UniProt Q9NPY3). As to the kind of experiment: ELISA, His-tagged human CD93 coated at 1 µg/mL, anti-mouse Fc-HRP.

Results are given in words; binding and its absence hold for the method and conditions named. Some binding calls cover weakened binding; strength is not graded here.

B1: mouse MMRN2-mFc (Fc fusion, UniProt A6H6E2 23-943, looked up, not shown: a dimerising Fc or GST)
chain: QDPGTKFSHLNRPGMPEGWRLGAEDTSRDPIRRNWCPYQKSRLVTFVAACKTEKFLVHSQQPCPQGAPDCQGVRVMYRVAQKPVYQVQQKVLISVDWRCCPGFQGPDCQDHNPTANPEPTEPSGKLQETWDSMDGFELGHPVPEFNEIKVPQEQQENLLQNLQNDAQSVEDGFPGSWEAPPSNLTDEMTEANLTEFEFPGRTSEHLLQPHIDAFLKAHFSPIWKNFNDSLHSLSQAIRNLSLDVEANHQAIKMIQEGTVARADFQELGAKFEAKVQQNSQRLGQLWQDVEDQLHAQRRSVHHALSDVQAEVSTKLKQLVKAQELPGANGSLVMASAAAAARPEPESLQARLGQLQRNLSALHMVTSQREEELQSTLKNMDSVLKQHAEEIKELYSESDETFDQISKVERQVEELLVNHTGLRELRVILMEKSLIMEENKEEIERQLLELNLTLQHLHAGHADLIKYVKDCNCQRVNSDVDVAPEGHRDVMHTLEETQVSLDEQHQLDGSSLQALQSTVDAMSSAMDAYRGEGERARAERARIRSQLRALDHAVEALKTAANGTRKEIRLLHGSFTALLEDALRHQAVLAALFGEEMIDEMSEEAPRPLPLDYEQIRLALQDAASGLQEQAIGWEDLATRVEALEKAAGGFVEQHPQLAEGLEPSHDSGREEEAMTLAELEQEIRRLSSDVKQIGQCCEASWAASLNSSLEDLHSMLLDTQHGLRQHRQLFHNLFQNFQGLVASNISLDLGKLQAMLSKKDKKQPRGPGESRKRDKKQVVMSTDAHAKGLELWETGSPVAFYAGSSEGATALQMVKFNTTSINVGSSYFPEHGYFRAPKRGVYLFAVSITFGPGPGMGQLVFEGHHRVPVYSTEQRGGSTATTFAMVELQKGERAWFELIQGSATKGSQPGTAFGGFLMFKT
Turning to B1, the binding result is on record as “binds”.
